Our source for the step yield values is patent publication US7622441B2 (Shire LLC, priority 2002, dated 2009).

A short description of the data set: peptide synthesis.

In the case of Boc-Gly-Gly-Gly-Gly-Leu-Hydrocodone, the step yield (coupling step) amounted to 37% yield.

On to “Gly-Gly-Gly-Gly-Leu-Hydrocodone (GGGGL; hydrocodone conjugate; synthetic carrier)”, for which the step yield (late stage modification step) worked out at 97% yield.
